The other results are listed elsewhere or left out.
Compound: CC1Cc2ccccc2N1C(=O)C1CCCN(C1)C(=O)CCl (mixture of isomers) [TRIM25 ligand 11 (diastereomer mixture)]
Test: probe-labelled cysteine peptide fold change vs DMSO (competition) (log2 fold change); higher = less target engagement (more negative = stronger competition)
Details: THP-1, incubation time: 4 h
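Note: competitive chemoproteomic profiling in live THP-1 cells with an iodoacetamide desthiobiotin (IA-DTB) probe, comparing probe-labelled peptide intensities in compound-treated cells against DMSO-treated controls.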

Protein sequences, listed by entry. Tags and fused reporters are not part of them. Lines headed by an entry give the natural chain unless they say otherwise; changes in a name come on top.
UniProt Q8N584: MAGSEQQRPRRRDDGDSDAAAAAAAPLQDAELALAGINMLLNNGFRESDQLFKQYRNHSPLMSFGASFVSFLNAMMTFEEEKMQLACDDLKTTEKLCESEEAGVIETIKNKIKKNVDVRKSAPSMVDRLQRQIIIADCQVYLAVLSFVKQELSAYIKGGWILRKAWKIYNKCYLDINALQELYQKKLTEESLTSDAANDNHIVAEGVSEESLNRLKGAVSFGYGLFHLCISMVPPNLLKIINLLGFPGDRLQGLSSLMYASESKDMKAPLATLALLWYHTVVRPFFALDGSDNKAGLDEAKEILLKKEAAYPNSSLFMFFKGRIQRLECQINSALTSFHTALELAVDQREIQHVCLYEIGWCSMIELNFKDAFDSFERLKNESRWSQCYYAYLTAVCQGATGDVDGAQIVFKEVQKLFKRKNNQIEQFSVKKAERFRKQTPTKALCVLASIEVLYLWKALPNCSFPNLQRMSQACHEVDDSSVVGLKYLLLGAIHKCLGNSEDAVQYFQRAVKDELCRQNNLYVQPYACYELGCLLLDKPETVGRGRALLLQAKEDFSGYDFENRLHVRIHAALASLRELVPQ
UniProt Q96AE7: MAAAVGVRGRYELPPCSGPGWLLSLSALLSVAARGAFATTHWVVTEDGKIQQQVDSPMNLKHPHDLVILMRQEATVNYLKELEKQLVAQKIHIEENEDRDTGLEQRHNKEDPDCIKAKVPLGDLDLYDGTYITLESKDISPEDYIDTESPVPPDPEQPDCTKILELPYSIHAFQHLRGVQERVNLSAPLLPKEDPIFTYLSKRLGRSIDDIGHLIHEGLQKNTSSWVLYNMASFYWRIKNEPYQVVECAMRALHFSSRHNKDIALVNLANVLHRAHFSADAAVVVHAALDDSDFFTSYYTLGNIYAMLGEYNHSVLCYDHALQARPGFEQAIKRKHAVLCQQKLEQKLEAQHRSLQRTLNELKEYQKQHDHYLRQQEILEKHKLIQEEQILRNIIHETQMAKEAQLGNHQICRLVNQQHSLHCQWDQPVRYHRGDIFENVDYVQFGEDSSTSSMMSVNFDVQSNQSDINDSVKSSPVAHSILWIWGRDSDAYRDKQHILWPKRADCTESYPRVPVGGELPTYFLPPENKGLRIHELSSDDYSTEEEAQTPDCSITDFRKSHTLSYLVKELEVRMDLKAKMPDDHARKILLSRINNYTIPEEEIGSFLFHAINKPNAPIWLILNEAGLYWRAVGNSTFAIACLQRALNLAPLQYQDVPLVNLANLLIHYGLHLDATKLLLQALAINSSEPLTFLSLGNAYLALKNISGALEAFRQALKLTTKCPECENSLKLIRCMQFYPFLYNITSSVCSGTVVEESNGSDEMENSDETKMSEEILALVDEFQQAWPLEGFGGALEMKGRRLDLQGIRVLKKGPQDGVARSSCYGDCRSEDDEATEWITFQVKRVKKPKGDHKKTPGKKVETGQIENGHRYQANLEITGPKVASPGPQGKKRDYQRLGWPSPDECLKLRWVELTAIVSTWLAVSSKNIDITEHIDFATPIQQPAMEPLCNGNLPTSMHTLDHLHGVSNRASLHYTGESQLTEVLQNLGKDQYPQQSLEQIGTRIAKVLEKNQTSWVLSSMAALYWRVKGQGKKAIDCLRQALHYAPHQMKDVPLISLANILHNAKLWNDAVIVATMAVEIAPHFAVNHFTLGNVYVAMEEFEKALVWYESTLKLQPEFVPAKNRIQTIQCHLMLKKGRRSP
UniProt Q99614: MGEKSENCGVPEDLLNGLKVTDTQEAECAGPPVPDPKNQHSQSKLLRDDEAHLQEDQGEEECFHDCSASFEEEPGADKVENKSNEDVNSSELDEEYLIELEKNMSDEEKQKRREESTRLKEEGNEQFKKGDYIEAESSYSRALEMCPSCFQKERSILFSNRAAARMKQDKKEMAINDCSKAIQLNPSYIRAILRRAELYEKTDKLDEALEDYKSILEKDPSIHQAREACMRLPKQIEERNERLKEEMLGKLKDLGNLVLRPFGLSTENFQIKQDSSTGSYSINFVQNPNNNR
UniProt Q9UNY4: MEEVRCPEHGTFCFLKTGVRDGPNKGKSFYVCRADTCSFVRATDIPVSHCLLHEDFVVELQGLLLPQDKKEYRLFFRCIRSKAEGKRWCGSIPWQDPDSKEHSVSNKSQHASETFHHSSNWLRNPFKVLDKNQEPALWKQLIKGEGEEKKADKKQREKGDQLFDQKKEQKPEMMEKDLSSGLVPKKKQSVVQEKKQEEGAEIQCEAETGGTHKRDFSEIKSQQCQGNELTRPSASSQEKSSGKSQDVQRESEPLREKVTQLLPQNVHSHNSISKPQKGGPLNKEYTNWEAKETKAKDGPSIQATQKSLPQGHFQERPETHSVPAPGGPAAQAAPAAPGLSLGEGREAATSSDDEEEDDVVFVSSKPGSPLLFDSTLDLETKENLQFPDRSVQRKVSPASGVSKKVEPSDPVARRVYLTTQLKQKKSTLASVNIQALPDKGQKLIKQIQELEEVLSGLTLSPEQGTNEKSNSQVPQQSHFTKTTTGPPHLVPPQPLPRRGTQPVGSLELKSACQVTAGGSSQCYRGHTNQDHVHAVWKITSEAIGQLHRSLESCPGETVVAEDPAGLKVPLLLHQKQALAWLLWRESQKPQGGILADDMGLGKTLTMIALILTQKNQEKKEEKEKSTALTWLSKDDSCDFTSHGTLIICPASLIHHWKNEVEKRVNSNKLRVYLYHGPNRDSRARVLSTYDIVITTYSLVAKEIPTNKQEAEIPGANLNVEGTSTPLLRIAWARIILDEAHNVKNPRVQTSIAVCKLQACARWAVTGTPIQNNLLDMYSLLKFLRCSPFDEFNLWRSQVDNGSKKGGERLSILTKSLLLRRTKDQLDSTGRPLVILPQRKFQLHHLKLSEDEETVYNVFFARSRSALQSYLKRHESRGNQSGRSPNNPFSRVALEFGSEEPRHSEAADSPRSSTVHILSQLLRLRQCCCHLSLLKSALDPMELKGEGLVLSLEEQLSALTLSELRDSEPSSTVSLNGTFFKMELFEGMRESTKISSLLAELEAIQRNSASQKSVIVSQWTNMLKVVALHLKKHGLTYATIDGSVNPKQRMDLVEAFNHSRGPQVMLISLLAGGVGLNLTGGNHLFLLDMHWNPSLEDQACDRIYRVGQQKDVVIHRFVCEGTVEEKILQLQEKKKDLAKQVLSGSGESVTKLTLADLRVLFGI
UniProt Q5TAX3: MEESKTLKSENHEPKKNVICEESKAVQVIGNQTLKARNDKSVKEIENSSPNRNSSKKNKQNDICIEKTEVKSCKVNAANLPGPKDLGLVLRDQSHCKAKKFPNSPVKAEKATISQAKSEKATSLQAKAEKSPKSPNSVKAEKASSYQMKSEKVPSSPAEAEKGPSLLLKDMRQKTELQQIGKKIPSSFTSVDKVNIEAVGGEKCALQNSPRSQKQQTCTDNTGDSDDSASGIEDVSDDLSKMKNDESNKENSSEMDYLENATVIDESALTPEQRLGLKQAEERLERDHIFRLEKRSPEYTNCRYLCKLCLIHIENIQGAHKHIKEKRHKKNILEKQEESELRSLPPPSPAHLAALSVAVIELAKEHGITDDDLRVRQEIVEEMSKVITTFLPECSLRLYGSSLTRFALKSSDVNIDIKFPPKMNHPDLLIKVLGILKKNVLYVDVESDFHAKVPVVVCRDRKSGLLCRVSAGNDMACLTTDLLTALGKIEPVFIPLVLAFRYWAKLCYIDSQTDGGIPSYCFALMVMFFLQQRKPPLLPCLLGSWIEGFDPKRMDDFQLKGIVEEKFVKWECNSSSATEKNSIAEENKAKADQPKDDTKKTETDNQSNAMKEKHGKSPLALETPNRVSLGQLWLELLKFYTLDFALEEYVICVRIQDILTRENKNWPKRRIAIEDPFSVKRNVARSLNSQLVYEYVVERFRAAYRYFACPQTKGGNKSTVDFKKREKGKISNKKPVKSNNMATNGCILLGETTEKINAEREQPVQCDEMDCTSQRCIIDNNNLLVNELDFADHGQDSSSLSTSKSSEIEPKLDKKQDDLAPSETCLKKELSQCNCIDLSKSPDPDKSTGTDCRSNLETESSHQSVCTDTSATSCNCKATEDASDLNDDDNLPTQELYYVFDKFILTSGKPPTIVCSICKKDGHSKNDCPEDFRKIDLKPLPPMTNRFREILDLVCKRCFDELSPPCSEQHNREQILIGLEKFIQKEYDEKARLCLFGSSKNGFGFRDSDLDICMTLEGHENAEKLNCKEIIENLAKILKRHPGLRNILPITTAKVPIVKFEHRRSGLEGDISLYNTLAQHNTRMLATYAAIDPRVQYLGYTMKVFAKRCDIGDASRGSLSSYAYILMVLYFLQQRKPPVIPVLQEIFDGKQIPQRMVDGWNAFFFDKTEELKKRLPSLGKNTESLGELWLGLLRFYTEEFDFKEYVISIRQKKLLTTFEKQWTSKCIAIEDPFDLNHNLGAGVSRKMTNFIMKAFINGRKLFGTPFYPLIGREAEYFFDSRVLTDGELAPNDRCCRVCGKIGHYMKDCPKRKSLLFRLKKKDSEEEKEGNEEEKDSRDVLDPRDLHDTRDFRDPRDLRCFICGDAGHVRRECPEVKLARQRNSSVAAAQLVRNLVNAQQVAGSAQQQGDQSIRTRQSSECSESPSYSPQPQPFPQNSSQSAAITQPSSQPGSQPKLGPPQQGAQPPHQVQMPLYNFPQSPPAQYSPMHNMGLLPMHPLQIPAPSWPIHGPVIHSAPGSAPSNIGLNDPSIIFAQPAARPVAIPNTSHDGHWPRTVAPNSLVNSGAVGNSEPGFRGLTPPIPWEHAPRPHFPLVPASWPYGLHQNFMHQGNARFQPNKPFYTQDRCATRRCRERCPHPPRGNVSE
UniProt Q6PGP7, whole entry, looked up: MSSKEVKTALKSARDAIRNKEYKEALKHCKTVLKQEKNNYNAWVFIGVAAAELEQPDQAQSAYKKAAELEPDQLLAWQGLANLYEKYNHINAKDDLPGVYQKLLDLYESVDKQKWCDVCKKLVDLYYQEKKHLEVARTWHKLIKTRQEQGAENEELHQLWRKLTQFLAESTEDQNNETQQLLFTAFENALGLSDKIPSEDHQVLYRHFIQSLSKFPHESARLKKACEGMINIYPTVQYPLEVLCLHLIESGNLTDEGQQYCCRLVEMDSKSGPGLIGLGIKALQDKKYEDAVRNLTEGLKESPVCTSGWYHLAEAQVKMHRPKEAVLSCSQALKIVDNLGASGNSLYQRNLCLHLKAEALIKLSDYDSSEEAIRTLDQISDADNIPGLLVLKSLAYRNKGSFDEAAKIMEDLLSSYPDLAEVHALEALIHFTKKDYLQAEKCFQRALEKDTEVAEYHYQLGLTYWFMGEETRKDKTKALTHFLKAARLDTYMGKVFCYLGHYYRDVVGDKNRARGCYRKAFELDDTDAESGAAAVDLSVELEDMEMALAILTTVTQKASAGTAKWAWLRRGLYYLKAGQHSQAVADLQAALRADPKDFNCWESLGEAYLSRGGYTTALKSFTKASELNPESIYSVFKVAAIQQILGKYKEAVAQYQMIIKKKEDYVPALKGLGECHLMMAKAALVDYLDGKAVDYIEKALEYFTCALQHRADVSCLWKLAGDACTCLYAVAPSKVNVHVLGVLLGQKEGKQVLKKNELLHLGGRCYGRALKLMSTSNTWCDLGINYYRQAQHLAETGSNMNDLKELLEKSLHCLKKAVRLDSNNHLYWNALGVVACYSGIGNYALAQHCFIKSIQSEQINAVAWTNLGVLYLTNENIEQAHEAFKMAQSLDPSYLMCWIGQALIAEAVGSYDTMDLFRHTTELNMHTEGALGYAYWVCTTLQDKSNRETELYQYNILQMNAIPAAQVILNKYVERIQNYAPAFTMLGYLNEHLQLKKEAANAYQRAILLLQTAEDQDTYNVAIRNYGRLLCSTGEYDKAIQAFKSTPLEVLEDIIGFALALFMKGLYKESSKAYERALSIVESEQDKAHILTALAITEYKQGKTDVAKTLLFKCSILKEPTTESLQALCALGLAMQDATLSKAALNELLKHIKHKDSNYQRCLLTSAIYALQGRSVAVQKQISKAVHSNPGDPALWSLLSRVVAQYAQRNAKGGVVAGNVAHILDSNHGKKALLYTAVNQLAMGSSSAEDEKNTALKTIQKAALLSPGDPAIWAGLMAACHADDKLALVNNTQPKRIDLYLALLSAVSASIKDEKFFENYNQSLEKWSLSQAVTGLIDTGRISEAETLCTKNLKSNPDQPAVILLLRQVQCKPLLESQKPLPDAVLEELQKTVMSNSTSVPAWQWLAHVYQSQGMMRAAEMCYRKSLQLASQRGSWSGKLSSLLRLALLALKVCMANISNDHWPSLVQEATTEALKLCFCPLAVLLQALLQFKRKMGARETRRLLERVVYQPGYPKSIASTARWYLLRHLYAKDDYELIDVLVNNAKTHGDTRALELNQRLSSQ

Row | Target | probe-labelled cysteine peptide fold change (10 µM) | probe-labelled cysteine peptide fold change (50 µM)
1 | TSPYL5_Q86VY4_85_LPLDCGLALR (UniProt Q86VY4) | -0.216 | -0.243
2 | TTC39C_Q8N584_463_ALPNCSFPNLQR (UniProt Q8N584) | 0.0135 | 0.131
3 | TROVE2_P10155_102_QEPMLFALAICSQCSDISTK (UniProt P10155) | -0.347 | -0.116
4 | TTC17_Q96AE7_725_CPECENSLK (UniProt Q96AE7) | 0.124 | 0.164
5 | TTC21B_Q7Z4L5_937_LYLAQDDPDSCLR (UniProt Q7Z4L5) | 0.00849 | -0.051
6 | TTLL12_Q14166_361_KLSQERPGVLLNQFPCENLLTVK (UniProt Q14166) | -0.237 | -0.214
7 | TTC1_Q99614_28_VTDTQEAECAGPPVPDPK (UniProt Q99614) | -0.362 | -0.114
8 | TRMU_O75648_9_HVVCALSGGVDSAVAALLLR (UniProt O75648) | -0.0365 | 0.169
9 | TSFM_P43897_71_ALETCGGDLK (UniProt P43897) | -0.0386 | -0.00599
10 | TRMT1_Q9NXH9_482_VSLSHACK (UniProt Q9NXH9) | 0.0229 | -0.097
11 | TTF2_Q9UNY4_50_ATDIPVSHCLLHEDFVVELQGLLLPQDK (UniProt Q9UNY4) | 0.0771 | 0.271
12 | TTC1_Q99614_146+149_ALEMCPSCFQK (UniProt Q99614) | -0.165 | 0.112
13 | TTC28_Q96AY4_726_ALGNLGDIFICK (UniProt Q96AY4) | 0.224 | 0.1
14 | TTF2_Q9UNY4_204_KQEEGAEIQCEAETGGTHKR (UniProt Q9UNY4) | -0.121 | -0.293
15 | TUBA1B_P68363_347_SIQFVDWCPTGFK (UniProt P68363) | 0.00658 | -0.00159
16 | TTC17_Q96AE7_506_RADCTESYPR (UniProt Q96AE7) | 0.0404 | 0.0813
17 | TTC27_Q6P3X3_743_CDTQSNCWEK (UniProt Q6P3X3) | -0.0917 | 0.0553
18 | TUBB6_Q9BUF5_124+127_ECEHCDCLQGFQLTHSLGGGTGSGMGTLLISK (UniProt Q9BUF5) | 0.115 | 0.112
19 | TTC39C_Q8N584_97_LCESEEAGVIETIK (UniProt Q8N584) | -0.0716 | -0.0786
20 | TTC14_Q96N46_577_DRCPLSSSSLEIPDDFGGR (UniProt Q96N46) | -0.0233 | -0.00469

In a second layout: results already given
Row	Target	probe-labelled cysteine peptide fold change (10 µM)	probe-labelled cysteine peptide fold change (50 µM)
2	TTC39C_Q8N584_463_ALPNCSFPNLQR (UniProt Q8N584)	0.0135	0.131
14	TTF2_Q9UNY4_204_KQEEGAEIQCEAETGGTHKR (UniProt Q9UNY4)	-0.121	-0.293
17	TTC27_Q6P3X3_743_CDTQSNCWEK (UniProt Q6P3X3)	-0.0917	0.0553

Remaining list, next part:

Row | Target | probe-labelled cysteine peptide fold change (10 µM) | probe-labelled cysteine peptide fold change (50 µM)
21 | TUT4_Q5TAX3_709_YFACPQTK (UniProt Q5TAX3) | -0.02 | 0.0464
22 | TTC39C_Q8N584_517_AVKDELCR (UniProt Q8N584) | -0.0987 | -0.126
23 | TUBGCP3_Q96CW5_388_TLAALVDHCQGR (UniProt Q96CW5) | 0.0685 | 0.153
24 | TTF1_Q15361_708_LQENPESCLSIVR (UniProt Q15361) | 0.0166 | 0.0241
25 | TTC37_Q6PGP7_600_DFNCWESLGEAYLSR (UniProt Q6PGP7) | 0.0103 | -0.0643
26 | TTC26_A0AVF1_227_ACNHFR | 0.072 | 0.0596
27 | TUT4_Q5TAX3_20_KNVICEESK (UniProt Q5TAX3) | -0.0558 | -0.326
28 | TRPM7_Q96QT4_1426_DQETVCSK (UniProt Q96QT4) | -0.118 | -0.219
29 | TUBA1C_Q9BQE3_376_AVCMLSNTTAVAEAWAR (UniProt Q9BQE3) | 0.00156 | -0.0426
30 | TTC37_Q6PGP7_675_GLGECHLMMAK (UniProt Q6PGP7) | -0.00388 | -0.151
31 | TSEN54_Q7Z6J9_338_ETDAESWCQK (UniProt Q7Z6J9) | -0.028 | -0.154
32 | TTC37_Q6PGP7_352_NLCLHLK (UniProt Q6PGP7) | -0.00995 | 0.0287
33 | TSC2_P49815_1687_GQFNFVHVIVTPLDYECNLVSLQCR (UniProt P49815) | -0.0731 | -0.000588
34 | TXLNG_Q9NUQ3_127_TDPPDGQQDSECNR (UniProt Q9NUQ3) | -0.0613 | -0.203
35 | TRUB1_Q8WWH5_269_ELSSCANVLELTR (UniProt Q8WWH5) | -0.109 | 0.14
36 | TRMT2A_Q8IZ69_463_VIGVELCPEAVEDAR (UniProt Q8IZ69) | 0.0959 | -0.244
37 | TUT4_Q5TAX3_204_CALQNSPR (UniProt Q5TAX3) | -0.309 | -0.492
38 | TUBGCP2_Q9BSJ2_350_TMDILASLATSVDKGECLGGSTLSLLHDR (UniProt Q9BSJ2) | -0.105 | -0.132
39 | TTC37_Q6PGP7_1162_CLLTSAIYALQGR (UniProt Q6PGP7) | -0.13 | -0.0818
40 | TTK_P33981_295_TDDSVVPCFMK (UniProt P33981) | -0.0393 | -0.0452
